Results are given in words; binding and its absence hold for the method and conditions named.
Tests used:
[1] = molecular target: Human LH2 recombinant protein (residues 33-758) L735D (human) (UniProt O00469); test: SEC-MALS; Human LH2 proteins, 2 mg/ml, 100 ul, Superdex 200; 20 mM Tris pH 8, 200 mM NaCl, 0.02% sodium azide, room temperature; both purified
[2] = molecular target: Human LH2 recombinant protein (residues 33-758) D689A (human) (UniProt O00469); test: as above

Row | binding [1] | binding [2] | Binder
1 | no binding (tested: 2 mg ml^-1 injected) |  | Human LH2 recombinant protein (residues 33-758) L735D (enzyme, UniProt O00469-2 33-758) SIPTDKLLVITVATKESDGFHRFMQSAKYFNYTVKVLGQGEEWRGGDGINSIGGGQKVRLMKEVMEHYADQDDLVVMFTECFDVIFAGGPEEVLKKFQKANHKVVFAADGILWPDKRLADKYPVVHIGKRYLNSGGFIGYAPYVNRIVQQWNLQDNDDDQLFYTKVYIDPLKREAINITLDHKCKIFQTLNGAVDEVVLKFENGKARAKNTFYETLPVAINGNGPTKILLNYFGNYVPNSWTQDNGCTLCEFDTVDLSAVDVHPNVSIGVFIEQPTPFLPRFLDILLTLDYPKEALKLFIHNKEVYHEKDIKVFFDKAKHEIKTIKIVGPEENLSQAEARNMGMDFCRQDEKCDYYFSVDADVVLTNPRTLKILIEQNRKIIAPLVTRHGKLWSNFWGALSPDGYYARSEDYVDIVQGNRVGVWNVPYMANVYLIKGKTLRSEMNERNYFVRDKLDPDMALCRNAREMTLQREKDSPTPETFQMLSPPKGVFMYISNRHEFGRLLSTANYNTSHYNNDLWQIFENPVDWKEKYINRDYSKIFTENIVEQPCPDVFWFPIFSEKACDELVEEMEHYGKWSGGKHHDSRISGGYENVPTDDIHMKQVDLENVWLHFIREFIAPVTLKVFAGYYTKGFALLNFVVKYSPERQRSLRPHHDASTFTINIALNNVGEDFQGGGCKFLRYNCSIESPRKGWSFMHPGRDTHLHEGLPVKNGTRYIAVSFIDP
2 |  | no binding (tested: 2 mg ml^-1 injected) | Human LH2 recombinant protein (residues 33-758) D689A (enzyme, UniProt O00469-2 33-758) SIPTDKLLVITVATKESDGFHRFMQSAKYFNYTVKVLGQGEEWRGGDGINSIGGGQKVRLMKEVMEHYADQDDLVVMFTECFDVIFAGGPEEVLKKFQKANHKVVFAADGILWPDKRLADKYPVVHIGKRYLNSGGFIGYAPYVNRIVQQWNLQDNDDDQLFYTKVYIDPLKREAINITLDHKCKIFQTLNGAVDEVVLKFENGKARAKNTFYETLPVAINGNGPTKILLNYFGNYVPNSWTQDNGCTLCEFDTVDLSAVDVHPNVSIGVFIEQPTPFLPRFLDILLTLDYPKEALKLFIHNKEVYHEKDIKVFFDKAKHEIKTIKIVGPEENLSQAEARNMGMDFCRQDEKCDYYFSVDADVVLTNPRTLKILIEQNRKIIAPLVTRHGKLWSNFWGALSPDGYYARSEDYVDIVQGNRVGVWNVPYMANVYLIKGKTLRSEMNERNYFVRDKLDPDMALCRNAREMTLQREKDSPTPETFQMLSPPKGVFMYISNRHEFGRLLSTANYNTSHYNNDLWQIFENPVDWKEKYINRDYSKIFTENIVEQPCPDVFWFPIFSEKACDELVEEMEHYGKWSGGKHHDSRISGGYENVPTDDIHMKQVDLENVWLHFIREFIAPVTLKVFAGYYTKGFALLNFVVKYSPERQRSLRPHHAASTFTINIALNNVGEDFQGGGCKFLRYNCSIESPRKGWSFMHPGRLTHLHEGLPVKNGTRYIAVSFIDP
